The list shows only some results of the screen, not a fair sample: it is rich in T/C values a quarter to a half above the control, in often repeated tests (any T/C) and in doses without a T/C. Further doses and runs are listed elsewhere. T/C is the treated group as % of the vehicle group. Some doses have a count of surviving animals in place of a T/C: the source holds a T/C of zero for them, seemingly a mark for toxic or unscored doses. Some survivor counts are full or nearly so, which does not show that the dose was tolerated: survival well below the control is almost never listed, so the zero probably covers shortened survival too. Survivors were counted at the toxicity check, usually on the fifth day, unless a day is given; later deaths do not show. Schedule codes are those of the source, read here as Q, the interval in days (D) or hours (H), X, the number of doses. Some doses were run more than once; the values are given in rising order. Where survival is the endpoint, this PubChem deposit counts one and a half times the control or more as active, and values a quarter to a half above the control carry no call in these data; other NCI protocols may use other cut-offs. Counts like (3×) give the number of equal values in this list. Some T/C values are followed by the survivors on the day toxicity was checked, most often the fifth; where none is given, no animal had died by that day.
Tested on: B6C3F1 mice, B16 melanoma ip, median survival T/C
Assay: NCI In Vivo Anticancer Drug Screen. Data for tumor model B16 Melanoma (intraperitoneal) in B6C3F1 mice
Conditions: T/C endpoint: median survival time, higher T/C = longer survival
In short: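 Antitumor effect was judged in mice with transplanted tumors by dividing the treated group's survival measure by that of vehicle controls.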

[1] = dose: 6.25 mg/kg/injection, schedule: Q01DX009 (ip), vehicle: saline with Tween-80, evaluated on day 45
[2] = dose: 6.25 mg/kg/injection, schedule: Q01DX009 (ip), vehicle: saline with Tween-80, evaluated on day 60
[3] = dose: 12.5 mg/kg/injection, schedule: Q01DX009 (ip), vehicle: saline with Tween-80, evaluated on day 45
[4] = dose: 12.5 mg/kg/injection, schedule: Q01DX009 (ip), vehicle: saline with Tween-80, evaluated on day 60
[5] = dose: 50.0 mg/kg/injection, schedule: Q01DX009 (ip), vehicle: saline with Tween-80
[6] = dose: 200.0 mg/kg/injection, schedule: Q01DX009 (ip), vehicle: Klucel (hydroxypropylcellulose) (HPC)
[7] = dose: 400.0 mg/kg/injection, schedule: Q01DX009 (ip), vehicle: Klucel (hydroxypropylcellulose) (HPC)
[8] = dose: 25.0 mg/kg/injection, schedule: Q01DX009 (ip), vehicle: saline
[9] = dose: 100.0 mg/kg/injection, schedule: Q01DX009 (ip), vehicle: Klucel (hydroxypropylcellulose) (HPC)

Nc1ccc(C(OC(=O)c2cc3ccccc3c(Cc3c(O)c(C(=O)OC(c4ccc(N)cc4)(c4ccc(N)cc4)c4ccc(N)cc4)cc4ccccc34)c2O)(c2ccc(N)cc2)c2ccc(N)cc2)cc1
T/C (dose: 1.56 mg/kg/injection, schedule: Q01DX009 (ip), vehicle: saline with Tween-80, evaluated on day 45): 96 % of control
T/C (dose: 1.56 mg/kg/injection, schedule: Q01DX009 (ip), vehicle: saline with Tween-80, evaluated on day 60): 97 and 99 % of control
T/C [1]: 109 % of control
T/C [2]: 87 and 104 % of control
T/C [3]: 106 % of control
T/C [4]: 118 % of control
survivor count (dose: 12.5 mg/kg/injection, schedule: Q01DX009 (ip), vehicle: saline with Tween-80): 9 of 10
survivor count (dose: 25.0 mg/kg/injection, schedule: Q01DX009 (ip), vehicle: saline with Tween-80): 5 of 10, 6 of 10, 10 of 10
survivor count [5]: 3 of 10

O=NNc1ncc(Br)cc1Br
T/C (dose: 50.0 mg/kg/injection, schedule: Q01DX009 (ip), vehicle: water): 144 % of control

CC(C)(C[NH-])C[NH-].[Cl][Pt+2][Cl]
T/C (dose: 0.25 mg/kg/injection, schedule: Q01DX009 (ip), vehicle: water): 135 % of control
T/C (dose: 0.5 mg/kg/injection, schedule: Q01DX009 (ip), vehicle: water): 149 % of control
T/C (dose: 0.5 mg/kg/injection, schedule: Q04DX003 (ip), vehicle: water): 127 % of control
T/C (dose: 1.0 mg/kg/injection, schedule: Q01DX009 (ip), vehicle: water): 144 and 147 % of control
T/C (dose: 1.0 mg/kg/injection, schedule: Q04DX003 (ip), vehicle: water): 141 % of control
survivor count (dose: 2.0 mg/kg/injection, schedule: Q01DX009 (ip), vehicle: water): 10 of 10
survivor count (dose: 4.0 mg/kg/injection, schedule: Q01DX009 (ip), vehicle: water): 10 of 10

CCCCCNc1ncnc2c(C)[nH]nc12
survivor count [6]: 7 of 10
survivor count [7]: 0 of 10

CCCC(C(=O)OCCN1CCCC12CCCCC2)C1CCCC1 (centres undefined)
survivor count (dose: 100.0 mg/kg/injection, schedule: Q01DX009 (ip), vehicle: saline): 10 of 10

O=c1c(O)c(-c2ccc(O)c(O)c2)oc2cc(O)cc(O)c12
survivor count (dose: 200.0 mg/kg/injection, schedule: Q01DX009 (ip), vehicle: suspension in saline): 9 of 10

CCCCC(NC(=O)OCc1ccccc1)C(=O)NC(Cc1c[nH]c2ccccc12)C(=O)O (centres undefined)
survivor count [7]: 2 of 10

CCCCCCCCCCCCCCCCS(=O)CC(O)COC(=O)c1ccc(C(=O)OCC(O)CS(=O)CCCCCCCCCCCCCCCC)cc1 (centres undefined)
survivor count (dose: 100.0 mg/kg/injection, schedule: Q01DX009 (ip), vehicle: saline + alcohol): 10 of 10
survivor count (dose: 200.0 mg/kg/injection, schedule: Q01DX009 (ip), vehicle: saline + alcohol): 10 of 10
survivor count (dose: 400.0 mg/kg/injection, schedule: Q01DX009 (ip), vehicle: saline + alcohol): 10 of 10

CO[C@@H]1[C@H](O)CC[C@]2(CO2)[C@H]1[C@@]1(C)O[C@@H]1CC=C(C)C
T/C [1]: 106 % of control
T/C [2]: 104, 108, 110 % of control [9 of 10 alive]
T/C [3]: 106 % of control
T/C [4]: 101, 107, 109 % of control
T/C (dose: 12.5 mg/kg/injection, schedule: Q01DX009 (ip), vehicle: saline): 131 % of control
T/C (dose: 25.0 mg/kg/injection, schedule: Q01DX009 (ip), vehicle: saline with Tween-80, evaluated on day 45): 100 % of control
T/C (dose: 25.0 mg/kg/injection, schedule: Q01DX009 (ip), vehicle: saline with Tween-80, evaluated on day 60): 103, 106, 115 % of control
T/C [8]: 131 % of control
T/C (dose: 50.0 mg/kg/injection, schedule: Q01DX009 (ip), vehicle: saline with Tween-80, evaluated on day 45): 102 % of control [9 of 10 alive]
T/C (dose: 50.0 mg/kg/injection, schedule: Q01DX009 (ip), vehicle: saline with Tween-80, evaluated on day 60): 110 % of control (3×)

CN1CCN(CCCN2c3ccccc3Sc3ccc(C(F)(F)F)cc32)CC1
survivor count (dose: 64.0 mg/kg/injection, schedule: Q01DX009 (ip), vehicle: saline): 4 of 10

CN(N=O)C(N)=O
T/C (dose: 3.0 mg/kg/injection, schedule: Q01DX009 (ip), vehicle: saline): 142 % of control
T/C (dose: 6.0 mg/kg/injection, schedule: Q01DX009 (ip), vehicle: saline): 127 % of control
survivor count [8]: 8 of 8
survivor count (dose: 50.0 mg/kg/injection, schedule: Q01DX009 (ip), vehicle: saline): 8 of 8

O=C/C(Cl)=C(/Cl)C(=O)O
survivor count (dose: 40.0 mg/kg/injection, schedule: Q01DX009 (ip), vehicle: saline with Tween-80): 9 of 10

O=[n+]1c2ccccc2n([O-])c2ccccc21.[Cl][Ni][Cl]
survivor count [5]: 7 of 10

O=C1N[C@H]2[C@H](CS[C@H]2CCCCC(=O)N(CCP(c2ccccc2)c2ccccc2)CCP(c2ccccc2)c2ccccc2)N1
survivor count [9]: 10 of 10
survivor count [6]: 7 of 10
survivor count [7]: 10 of 10

CCCCC(CC)(CC(=N)C(C)(C)C)c1ccccc1 (centres undefined)
survivor count (dose: 100.0 mg/kg/injection, schedule: Q01DX009 (ip), vehicle: saline + Tween-80 + alcohol): 10 of 10
survivor count (dose: 200.0 mg/kg/injection, schedule: Q01DX009 (ip), vehicle: saline + Tween-80 + alcohol): 10 of 10

COc1ccc2[nH]c3c(c2c1)CCNC3CC(C)CCC=C(C)C (centres undefined)
survivor count [6]: 0 of 10

COc1ccc(CC2C(=O)NC(C)C(=O)N(C)C3Cc4ccc(cc4)Oc4cc(ccc4O)CC(C(=O)NC(C)C(=O)NC(C)C(=O)N2C)N(C)C3=O)cc1 (centres undefined)
T/C (dose: 1.0 mg/kg/injection, schedule: Q01DX009 (ip), vehicle: other): 135 % of control
T/C (dose: 1.0 mg/kg/injection, schedule: Q01DX009 (ip), vehicle: saline with Tween-80): 138 % of control
T/C (dose: 2.0 mg/kg/injection, schedule: Q01DX005 (ip), vehicle: saline with Tween-80): 135 % of control
T/C (dose: 2.0 mg/kg/injection, schedule: Q01DX009 (ip), vehicle: other): 143 % of control
T/C (dose: 2.0 mg/kg/injection, schedule: Q01DX009 (ip), vehicle: saline + Tween-80 + alcohol): 145 % of control
survivor count (dose: 2.0 mg/kg/injection, schedule: Q01DX009 (ip), vehicle: saline with Tween-80): 5 of 10
T/C (dose: 4.0 mg/kg/injection, schedule: Q01DX009 (ip), vehicle: saline + Tween-80 + alcohol): 135 % of control
survivor count (dose: 4.0 mg/kg/injection, schedule: Q01DX009 (ip), vehicle: saline with Tween-80): 0 of 10
T/C (dose: 8.0 mg/kg/injection, schedule: Q01DX005 (ip), vehicle: saline with Tween-80): 129 % of control [9 of 10 alive]
T/C (dose: 8.0 mg/kg/injection, schedule: Q01DX009 (ip), vehicle: saline + Tween-80 + alcohol): 146 % of control
T/C (dose: 8.0 mg/kg/injection, schedule: Q01DX009 (ip), vehicle: saline with Tween-80): 145 % of control [9 of 10 alive]
survivor count (dose: 16.0 mg/kg/injection, schedule: Q01DX009 (ip), vehicle: other): 0 of 10
survivor count (dose: 16.0 mg/kg/injection, schedule: Q01DX009 (ip), vehicle: saline + Tween-80 + alcohol): 6 of 10

Cc1ccccc1N(CC1CO1)CC1CO1 (centres undefined)
survivor count (dose: 400.0 mg/kg/injection, schedule: Q01DX009 (ip), vehicle: saline): 3 of 10

Cc1ccc2c(c1)Sc1ccc(N=NN(C)C)cc1N2C
survivor count (dose: 100.0 mg/kg/injection, schedule: Q01DX009 (ip), vehicle: other): 6 of 10

Cn1cc(C2NC(=O)c3ccccc3N2)c2ccccc21 (centres undefined)
T/C (dose: 50.0 mg/kg/injection, schedule: Q01DX009 (ip), vehicle: Klucel (hydroxypropylcellulose) (HPC)): 132 % of control
T/C [9]: 131 and 140 % of control [9 of 10 alive]
T/C [6]: 144 % of control
T/C [7]: 126 % of control
survivor count [7]: 2 of 7
survivor count (dose: 800.0 mg/kg/injection, schedule: Q01DX009 (ip), vehicle: Klucel (hydroxypropylcellulose) (HPC)): 0 of 7

Reference: PubChem BioAssay AID200 (DTP/NCI, 2004)
